{"source": "PubChem BioAssay AID1224830 (NIAID, 2016)", "aim": "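Regulators of TLR4 signalling towards TNF-alpha in macrophage-like cells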 (primary screen)", "cells": "human THP-1 monocytic leukaemia cells, TNF dual-luciferase reporter clone, PMA-differentiated to macrophage-like cells", "reagent": "siRNA pool against human genes, 50 nM", "duration": "LPS for 4 h, given about 3 days after siRNA transfection", "challenge": "bacterial LPS (TLR4 ligand), 10 ng/ml", "read-out": "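TNF firefly reporter luminescence divided by renilla, normalised to the plate median, then turned into a robust z-score for each replicate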", "scale": "TNF reporter robust z-score: higher = stronger TNF reporter response to LPS", "call rule": "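a well is active when its z-score exceeds 2.8 or falls below -1.5; control wells carry no call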", "note": "This is an unselected part of about 18,000 reagents. About 2,900 of all reagents (16%) count as active. 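Calls are made per well; low scores hint the gene aids the LPS response, high scores that it dampens it.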 Repeated entries: four replicate wells of each siRNA pool."}
{"gene": "CARTPT", "TNF reporter robust z-score": -1.05, "call": "inactive"}
{"gene": "CARTPT", "TNF reporter robust z-score": -0.96, "call": "inactive"}
{"gene": "CARTPT", "TNF reporter robust z-score": -1.13, "call": "inactive"}
{"gene": "CARTPT", "TNF reporter robust z-score": -0.8, "call": "inactive"}
{"gene": "FBXL18", "TNF reporter robust z-score": 4.32, "call": "active"}
{"gene": "FBXL18", "TNF reporter robust z-score": -0.68, "call": "inactive"}
{"gene": "FBXL18", "TNF reporter robust z-score": -1.03, "call": "inactive"}
{"gene": "FBXL18", "TNF reporter robust z-score": -1.32, "call": "inactive"}
{"gene": "BBOF1", "TNF reporter robust z-score": -0.16, "call": "inactive"}
{"gene": "BBOF1", "TNF reporter robust z-score": -1.14, "call": "inactive"}
{"gene": "BBOF1", "TNF reporter robust z-score": -0.94, "call": "inactive"}
{"gene": "BBOF1", "TNF reporter robust z-score": 0.19, "call": "inactive"}
{"gene": "MESD", "TNF reporter robust z-score": 0.6, "call": "inactive"}
{"gene": "MESD", "TNF reporter robust z-score": -0.33, "call": "inactive"}
{"gene": "MESD", "TNF reporter robust z-score": 1.71, "call": "inactive"}
{"gene": "MESD", "TNF reporter robust z-score": 1.47, "call": "inactive"}
{"gene": "DAZ4", "TNF reporter robust z-score": 1.28, "call": "inactive"}
{"gene": "DAZ4", "TNF reporter robust z-score": 1.95, "call": "inactive"}
{"gene": "DAZ4", "TNF reporter robust z-score": 1.14, "call": "inactive"}
{"gene": "DAZ4", "TNF reporter robust z-score": 1.1, "call": "inactive"}
